# Measurements reported in PubChem BioAssay AID504834 (National Center for Advancing Translational Sciences (NCATS), 2011).
# Hit rate of the full screen: of about 320,000 compounds, about 22,000 (6.9%) were called active. Inconclusive results, whose numbers are uncertain, are shown with a selection of clear calls. Calls follow the shape of the dose curve; as a rule, active = well fitted inhibition curve with a large enough effect; inconclusive = small, poorly fitted or top-dose-only effect, or another doubt; inactive = no such curve, though single readings can be large or run the other way. A potency beside an inconclusive call is a rough fit, not a confirmed value.
# Assay: Primary qHTS for delayed death inhibitors of the malarial parasite plastid, 96 hour incubation
# Conditions: P. falciparum luciferase reporter growth; series mostly up to 28.7 µM; activity change, negative = inhibition: at the top concentration
# Method in brief: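 Delayed-death screen, second-generation endpoint: infected erythrocytes, 2% hematocrit, 0.05% parasitemia final; 96 hours at 37 C, 5% CO2; luciferase detection reagent; luminescence decrease equals reduced growth.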
# % is scaled to controls: 0 for no effect and ±100 for the full control effect; potency is read from the fitted curve at half-maximal effect.
SMILES,Potency,"activity change, negative = inhibition"
Cc1cc(C)cc(NC(=O)[C@H](Cc2c[nH]c3ccccc23)NC(=O)[C@@H]2Cc3ccccc3CN2)c1,"inconclusive: 11.7 µM [inhibitor, single point]",–
c1ccc2c(-n3cccn3)cccc2c1,–,inactive: -18%
Cc1ccc(CN2CCN(Cc3ccc4c(c3)OCCO4)CC2CCO)cc1 (stereo unspecified),"inconclusive: 18.5 µM [inhibitor, single point]",–
COc1cc([N+](=O)[O-])ccc1N1C(=O)CC(Sc2nccc(C)n2)C1=O (stereo unspecified),"inconclusive: 10.4 µM [inhibitor, single point]",–
Cc1ccc(S(=O)(=O)N(C)CC(=O)Nc2cc(C)ccn2)cc1,–,inactive: 153%
O=C(NCCCCNC(=O)c1ccccc1Cl)c1ccccc1Cl,–,inactive: 14.5%
O=C(/C=C/c1ccc(O)c(O)c1)OC(Cc1ccc(O)c(O)c1)C(=O)O (stereo unspecified),–,inactive: -15.9%
CCCN1Cc2cccc(C(=O)NC(CC(=O)OCC)c3ccc(OC(C)C)cc3)c2C1=O (stereo unspecified),–,inactive: -15.7%
CCNC(=O)CC1SC(=Nc2ccc(Cl)cc2)N(CC)C1=O (stereo unspecified),"inconclusive: 0.0029 µM [inhibitor, full curve, poor fit]",–
O=C(Nc1cccc2ncccc12)c1ccc(OCc2ccccc2)cc1,–,inactive: 227%
O=C(Nc1cccc(-c2nc3ccccc3s2)c1)c1cc(=O)c2ccccc2o1,–,inactive: 90.1%
Cc1ccc2cc(C#N)c(SCC(=O)NCC3CCCO3)nc2c1C (stereo unspecified),"inconclusive: 2.62 µM [inhibitor, full curve, poor fit]",–
COc1ccc(NC(=O)CC(=O)Nc2ccc(OC)cc2OC)c(OC)c1,"inconclusive: 18.5 µM [inhibitor, single point]",–
CCOCCCN(C)C1CCN(C(=O)c2oc3ccccc3c2NC(=O)c2ccc(F)cc2)CC1,"inconclusive: 18.5 µM [inhibitor, single point]",–
O=C(NNC(=O)C1CCCCC1)C(=O)NC1CCCCC1,–,inactive: 57.9%
CCn1c(C)nc2cc(C(=O)NNC(=S)Nc3ccc(Cl)cc3)ccc21,"inconclusive: 20.8 µM [inhibitor, partial curve, poor fit]",–
CCOC(=O)/C=C(\C)N1N=C(c2ccccc2)CC1c1ccccc1 (stereo unspecified),–,inactive: 18.5%
Cc1cccc(NC(=O)NC2CCCCCCC2)c1C,"inconclusive: 18.5 µM [inhibitor, single point]",–
COc1ccc(C2/C=C\CN(S(=O)(=O)c3ccc(C)cc3)[C@H](Cc3ccccc3)C(=O)N2Cc2ccc(F)cc2)cc1 (stereo partly specified),active: 8.28 µM,–
COc1cc2c(cc1OC)[C@@H]1Cc3cc4c(cc3[C@H](C2)N1C)OCO4,"inconclusive: 11.7 µM [inhibitor, single point]",–
Cn1c(-c2nonc2NC(=O)c2ccc(C(C)(C)C)cc2)nc2ccccc21,–,inactive: -23.1%
CC1=C(C(=O)OC(C)C)[C@]2(C(=O)N(CC(N)=O)c3ccccc32)C(C#N)=C(N)O1,"inconclusive: 14.7 µM [inhibitor, single point]",–
Cc1ncoc1C(=O)NC1CC(C)(C)Cc2c1cnn2-c1ccc(F)cc1 (stereo unspecified),–,inactive: -15.5%
CC1CCC(C(C)C)C(OC(=O)CSc2nnc(N)s2)C1 (stereo unspecified),"inconclusive: 11.7 µM [inhibitor, single point]",–

SMILES,Potency,"activity change, negative = inhibition"
Cc1ccc(-c2nnc(N(C)C(=O)c3cccnc3)s2)cc1,"inconclusive: 2.08 µM [inhibitor, partial curve, poor fit]",–
CCC1Oc2ccccc2N(CC(=O)NC2CC2)C1=O (stereo unspecified),–,inactive: 20.6%
CCSc1nnc2c(n1)OC=Nc1ccc(Br)cc1-2,"inconclusive: 4.15 µM [inhibitor, partial curve, poor fit]",–
O=c1c2c(nc3cc(-c4ccc(Br)cc4)[nH]n13)CCCC2,"inconclusive: 5.22 µM [inhibitor, partial curve, poor fit]",–
COCCN1CCN(C(=O)C2CCC(=O)N(Cc3ccccc3OC)C2)CC1 (stereo unspecified),"inconclusive: 11.7 µM [inhibitor, single point]",–
C=CCn1c(SCc2nc3ccccc3c(=O)[nH]2)nnc1-c1cc2cc(Cl)ccc2o1,"inconclusive: 13.1 µM [inhibitor, single point]",–
Cc1nc(NC(=O)c2ccco2)sc1-c1csc(Nc2ccc(Cl)cc2Cl)n1,active: 8.28 µM,–
Cn1ccnc1C1CCCCN1Cc1nc(-c2ccc(Cl)cc2)no1 (stereo unspecified),"inconclusive: 3.29 µM [inhibitor, full curve]",–
COc1cc2c(cc1OC)CN(C(=O)c1cccc(S(=O)(=O)N3CCc4ccccc43)c1)CC2,active: 11.7 µM,–
S=c1[nH]c(-c2ccccc2)cn1/N=C/c1cccc2ccccc12,"inconclusive: 18.5 µM [inhibitor, single point]",–
CCOCc1c(C(=O)Nc2cc(OCC)c(N3CCOCC3)cc2OCC)oc2ccccc12,"inconclusive: 18.5 µM [inhibitor, single point]",–
CCCCCOC(=O)C1=C(C)NC(=O)NC1c1ccccc1OCC (stereo unspecified),"inconclusive: 0.0738 µM [inhibitor, full curve, poor fit]",–
CC1=NN(c2cccc(C(=O)O)c2)C(=O)/C1=C\C=C/c1ccccc1,–,inactive: -10.8%
Cc1ccc(S(=O)(=O)NNC(=O)Nc2ccccc2F)c(C)c1,–,inactive: -11.1%
CCc1ccc(C(=O)NC(=S)Nc2ccc(N3CCOCC3)cc2)cc1,"inconclusive: 14.7 µM [inhibitor, partial curve, poor fit]",–
C[C@@H](NC(=O)[C@@H]1Cc2ccccc2CN1C(=O)OC(C)(C)C)C(=O)NCC1CCCO1 (stereo partly specified),"inconclusive: 18.5 µM [inhibitor, single point]",–
CC(C)(C)N(NC(=O)OCc1ccccc1)C(=O)c1ccccc1Cl,–,inactive: -2.15%
O=C1NC[C@H](c2ccccc2)N(CCc2cccc3ccccc23)C1=O,–,inactive: -7.25%
COc1ccc(CCNC(=O)c2ccn[nH]2)cc1OC,"inconclusive: 2.33 µM [inhibitor, partial curve, poor fit]",–
Cc1cc(C(=O)COC(=O)c2n[nH]c(=O)c3ccccc23)c(C)n1C,–,inactive: 7.88%
N/C(=N\OC(=O)c1cc(Cl)ccc1Cl)c1ccccn1,"inconclusive: 4.15 µM [inhibitor, partial curve, poor fit]",–
Cc1cc(N2CCOCC2)nc2ccc(NC(=S)NCc3ccc4c(c3)OCO4)cc12,"inconclusive: 11.7 µM [inhibitor, single point]",–
Cc1cc(NC(=O)CN(C)S(=O)(=O)c2ccc(-c3ccc(=O)[nH]n3)s2)ccc1Br,–,inactive: -1.12%
O=C(Cc1ccc2c(c1)CCCC2)Nc1ccccc1Br,active: 2.62 µM,–

# Molecules above with an NH in an aromatic ring, in the order listed:
SMILES,Potency,"activity change, negative = inhibition"
Cc1cc(C)cc(NC(=O)[C@H](Cc2c[nH]c3ccccc23)NC(=O)[C@@H]2Cc3ccccc3CN2)c1,"inconclusive: 11.7 µM [inhibitor, single point]",–
O=c1c2c(nc3cc(-c4ccc(Br)cc4)[nH]n13)CCCC2,"inconclusive: 5.22 µM [inhibitor, partial curve, poor fit]",–
C=CCn1c(SCc2nc3ccccc3c(=O)[nH]2)nnc1-c1cc2cc(Cl)ccc2o1,"inconclusive: 13.1 µM [inhibitor, single point]",–
S=c1[nH]c(-c2ccccc2)cn1/N=C/c1cccc2ccccc12,"inconclusive: 18.5 µM [inhibitor, single point]",–
COc1ccc(CCNC(=O)c2ccn[nH]2)cc1OC,"inconclusive: 2.33 µM [inhibitor, partial curve, poor fit]",–
Cc1cc(C(=O)COC(=O)c2n[nH]c(=O)c3ccccc23)c(C)n1C,–,inactive: 7.88%
Cc1cc(NC(=O)CN(C)S(=O)(=O)c2ccc(-c3ccc(=O)[nH]n3)s2)ccc1Br,–,inactive: -1.12%

# Shown with tabs: 2 of the compounds above.
SMILES	Potency	activity change, negative = inhibition
Cc1ccc(S(=O)(=O)NNC(=O)Nc2ccccc2F)c(C)c1	–	inactive: -11.1%
CCc1ccc(C(=O)NC(=S)Nc2ccc(N3CCOCC3)cc2)cc1	inconclusive: 14.7 µM [inhibitor, partial curve, poor fit]	–

# Later entries:

SMILES,Potency,"activity change, negative = inhibition"
CCn1cc(CCC(=O)NC2CCCC2)c2ccccc21,–,inactive: -7.15%
Cc1ccc(S(=O)(=O)c2c(C)nn(C(C)(C)C)c2OC(=O)c2ccc(Br)o2)cc1,–,inactive: 18.8%
COc1ccc(CNC(=O)C(=O)NCC2OCCN2S(=O)(=O)c2ccc(C)cc2)cc1 (stereo unspecified),"inconclusive: 16.5 µM [inhibitor, single point]",–
CC1=Nc2ccc(C)cc2/C1=C/c1c(N)n2c(S(=O)(=O)C(C)C)nsc2nc1=O,"inconclusive: 0.294 µM [inhibitor, full curve, poor fit]",–
COC(=O)c1ccc(C23CC4(C2)[C@H](CN(CC2CCCCC2)[C@@H]4c2ccccc2)C3c2ccccc2)cc1 (stereo partly specified),"inconclusive: 10.4 µM [inhibitor, single point]",–
O=C(Nc1nc(-c2ccc(F)cc2)cs1)c1cccnc1,–,inactive: -5.95%
COC(=O)CSc1nc2cc3c(cc2cc1C)OCO3,–,inactive: -8.76%
CCOC1(c2ccccc2)CC1C(=O)N/N=C/c1cccc([N+](=O)[O-])c1 (stereo unspecified),"inconclusive: 4.15 µM [inhibitor, partial curve]",–
Cc1ccc(NC(=O)CSc2nnc(N)s2)cc1S(=O)(=O)N1CCCCC1,"inconclusive: 11.7 µM [inhibitor, single point]",–
COc1ccc(C(=O)NN(c2ccccc2)c2ccccc2)cc1,"inconclusive: 16.5 µM [inhibitor, partial curve, poor fit]",–
CCN(C(=O)CSc1nnc(-c2ccncc2)o1)c1ccccc1,"inconclusive: 18.5 µM [inhibitor, single point]",–
O=C(Nc1cccc(Cl)c1)Nc1ccccc1-n1ccnc1,active: 11.7 µM,–
CC(=O)c1cccc(NC(=O)CSc2nnc(-c3ccncc3)o2)c1,–,inactive: -1.01%
CN(C)CCN=Cc1c(O)n(Cc2ccc3c(c2)OCO3)c(=O)c2ccccc12,–,inactive: 15%
CCCCOc1ccccc1C(=O)NNC(=S)NC(=O)c1ccccc1[N+](=O)[O-],"inconclusive: 1.31 µM [inhibitor, partial curve, poor fit]",–
CCC(C)NC(=O)CN1C(=O)CSc2ccc(S(=O)(=O)N3CCCC3)cc21 (stereo unspecified),"inconclusive: 10.4 µM [inhibitor, single point]",–
CC1CCCCN1C(=O)c1cc(-c2ccc3c(c2)OCO3)on1 (stereo unspecified),"inconclusive: 18.5 µM [inhibitor, single point]",–
CC(C)CCOCC(=O)Nc1cccc(C(=O)O)c1,–,inactive: 196%
CCC(C)[C@H](NC(=O)OC(C)(C)C)C(=O)N/N=C/c1ccc2cc(OC)ccc2n1 (stereo partly specified),"inconclusive: 16.5 µM [inhibitor, single point]",–
Cc1nn(-c2cc(N3CCCCC3)ccc2[N+](=O)[O-])c(=O)c2ccccc12,–,inactive: -18.4%
O=C(NCCCN1CCN(c2ccccc2)CC1)C1CCCN(c2ncnc3c2nc2n3CCCCC2)C1 (stereo unspecified),"inconclusive: 0.0522 µM [inhibitor, full curve]",–
Cc1c(NC(=O)C(C)NCC2CCCO2)c(=O)n(-c2ccccc2)n1C (stereo unspecified),"inconclusive: 4.15 µM [inhibitor, single point]",–
CCN1CCN(c2nc(N)c([N+](=O)[O-])c(Nc3cccc(C)c3)n2)CC1,–,inactive: -11.4%
